Among the data in PMC5355957 are binding values, retold here.

Amino acid sequences for entries named in this document (tags omitted). Residues count along the entry.
UniProt P29317, residues 24-976: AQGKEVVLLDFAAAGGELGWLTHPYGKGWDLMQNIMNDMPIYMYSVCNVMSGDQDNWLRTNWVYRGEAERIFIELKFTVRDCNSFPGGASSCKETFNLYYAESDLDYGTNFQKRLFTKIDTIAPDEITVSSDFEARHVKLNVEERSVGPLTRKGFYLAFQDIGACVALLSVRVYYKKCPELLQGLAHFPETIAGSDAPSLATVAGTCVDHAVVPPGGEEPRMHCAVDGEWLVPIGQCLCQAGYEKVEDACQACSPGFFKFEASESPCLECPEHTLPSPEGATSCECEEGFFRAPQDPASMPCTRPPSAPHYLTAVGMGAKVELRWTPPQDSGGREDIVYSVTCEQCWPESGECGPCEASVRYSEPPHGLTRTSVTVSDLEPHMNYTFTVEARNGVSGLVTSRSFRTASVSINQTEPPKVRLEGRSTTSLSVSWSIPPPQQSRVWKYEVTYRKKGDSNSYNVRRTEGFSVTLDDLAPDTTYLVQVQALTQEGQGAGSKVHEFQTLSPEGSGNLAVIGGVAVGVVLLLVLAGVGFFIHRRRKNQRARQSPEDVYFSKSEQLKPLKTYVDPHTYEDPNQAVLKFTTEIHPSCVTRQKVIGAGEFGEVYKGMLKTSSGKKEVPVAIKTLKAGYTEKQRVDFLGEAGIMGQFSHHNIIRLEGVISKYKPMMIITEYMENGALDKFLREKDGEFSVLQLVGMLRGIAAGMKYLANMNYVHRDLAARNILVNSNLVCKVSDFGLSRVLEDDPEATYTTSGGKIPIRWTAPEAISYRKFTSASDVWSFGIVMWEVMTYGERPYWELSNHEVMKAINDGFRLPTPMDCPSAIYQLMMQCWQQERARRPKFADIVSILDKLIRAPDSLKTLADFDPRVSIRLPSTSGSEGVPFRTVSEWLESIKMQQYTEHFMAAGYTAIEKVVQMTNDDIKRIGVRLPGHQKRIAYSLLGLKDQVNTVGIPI

Results are given in words; binding and its absence hold for the method and conditions named. In cells and extracts the contact can be indirect. Binding can be weak; no strength is given.

For assay [1], the target named is Ephrin type-A receptor 2 (EphA2), endogenous (human (endogenous in A2780, H1299, PC3)) (UniProt P29317). Briefly: co-IP; anti-EphA2 magnetic beads, endogenous proteins in lysates of untransfected A2780, H1299 and PC3 cells (H1299 also with si-LMTK3 and HGF 10 ng/ml); 0.15% Tween-20 buffer; 2 h at 4 °C; immunoblot.
Another assay deals with EphA2-GFP (human) (UniProt P29317). Briefly: co-IP; anti-GFP magnetic beads, lysates of A2780 cells transfected with GFP, GFP-RCP or EphA2-GFP; 0.15% Tween-20 buffer; 2 h at 4 °C; immunoblot. (A western blot detects proteins with antibodies after separation by electrophoresis.)

Consider “Rab-coupling protein (RCP), endogenous (from UniProt Q6WKZ4-3)”, for which the binding entry (in assay [1]; in the assay with EphA2-GFP (human)) was “binds” in each case.
